# Results reported in the RNAGym collection of RNA variant scans (doi:10.1126/science.aae0568).
# This sample is rich in variants without activity.
# B1: tRNA (parent)
# chain: GUUCCGUUGGCGUAAUGGUAACGCGUCUCCCUCCUAAGGAGAAGACUGCGGGUUCGAGUCCCGUACGGAACG
# Variants of: B1
# Assay: yeast fitness relative to wild type (ratio to wild type); higher = fitter; tRNA-Arg(CCU), competitive growth, 37 C, YPD
# In short: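 Amplicons of the tRNA-Arg(CCU) gene were sequenced, 100-nucleotide paired-end, from the start population and from each end population of a pooled yeast competition. The competition, in six parallel replicates, lasted 24 hours in YPD at 37°C. Fitness relative to wild type was calculated from changes in genotype frequencies. Genotypes had to have ≥ 100 starting reads, and estimates < 0.5 were set to 0.5.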
row,Variant,yeast fitness
1,GUUCCGUAGGCGUAAUGGUAACGCGUCUUCCUUCUAAGGAGAAGACUGCGGGUUCGAGUCCCGUACGGCACG,≤ 0.5
2,GUUCCGUUGGCGUAAUGGUCACGCGUCUCCCUCCUAAGGAGAAGACUGCGGGUUUGAGUCCCGUACGGAACG,0.612
3,GUUCCGUUGCCGUAAUGGAAACGCGUCUCCCUCCUACGGAGAAGACUGCGGGUUCGAGUCCCGUACGGAACG,0.502
4,GUUCCGUUGGCGUAAUGGUAACGCGUCUCUCUCCUAAGGAGGUGACUGCGGGUACGAGUCCCGUACGGAACG,≤ 0.5
5,GUUCCGUUGGCGUUAUGGUAAGGCGUCGCCCUCCUAAGGAGAAGACUGCGGGUUCGAGUCCCCUACGGAACG,≤ 0.5
6,GCUCCGUUGGCGUAAUGGUAACGCGUCUCCCUCCUAAGGAGAUCACUGCGGGUUCGAGUCCCGUACGGAACG,≤ 0.5
7,GUUCCGUUGGCGUAAUGGCAACGCGUCUCCUUGCUAAGGAAAAGACUGGGGGUCCGAGCCCCAUACGGAACG,≤ 0.5
8,GUUCCGUUGGCGUAAUCGUAACGCGUCACAAUCCUAAGGAGAAGACUGCGGGUUCGGGUCCCGUACGGAACG,≤ 0.5
9,GUUCCAUUGGCGAAAUGGUGGCGCGUCUCCCUCCUAAGGAGAAGACUGCGGGUUCGAGUCCCGUCCGGAACG,≤ 0.5
10,GUUCCGUUGGCGUAAUGGUGACGCGUCUCCCUCCUAAGGAGAAGACUGCGGGUUCGAGUCCUGUACGGAACG,1.05
11,GUACCGUUGGCGUAAUGGUAACGCCUCUCCCUCCUAAGGAGAAGACAGCGGGUUCGAGUCCCGUACGGAACG,0.547
12,GGUCCGUUGGCAAAAUGGUAACGCCUCACCCUACUAAGGAGAAGACUGCGGGUUCGAGUCCCGUACGGAACG,≤ 0.5
13,GUUCCGUUGGCGUAAUGGUAACGGGUCUCCCUCCUAAGGCGCAGACUGCGGGUUCGAGUCCCGUACGGAACG,≤ 0.5
14,GUUCCGUCGGCGUAAUGGUAACGCGUCUCCCUCCUAACGAGAAGACUGCGGGUUUGAGUCCCGUACGGAACG,≤ 0.5
15,GUUUCGUUGGCGUAAUGGUAAGGCGUCUCCCUCCUAUGGAGAAGACUGCGGGUUCGAGUCCGGUACGGAACG,≤ 0.5
16,GUUCCGUUGGCGUUAUGGUCACGCGUCUCCCUCCUAAGGAGAAGACUGCGGGUUCGAGUCCCGUAAGGAACG,≤ 0.5
17,GUUCCGUUGGCGUAAUGGUAACGCGUCUCGAUCCUAAGGAGUAGACUGCGGGUUCGAGUCCCGUACGGAACG,≤ 0.5
18,GUUCCGUUGGCGGAAUGGUAACGCGUCUCCCUCCUAAGGUGAACACUGCGGGUUCGCGUCCCGUACGGAACG,≤ 0.5
19,GUUCCGUUGGAGUAAUGGUAACCCGUCUCCCUUCUAAGGAGAUGCCUGCGGGUUCGAGUCCCGUACGGAACG,≤ 0.5
20,GUUCCGUUGGCCUAAUGGUAACGCGUCUUCCUCCUAAGGAGAAGACUGCGAGUUCAAGUCCCCUACGGAUCG,≤ 0.5
21,GUUCCGUUGGCGUAAUGGUAACGCGUCUCCCUCCUAUGGCGGAGACUGCGGGUUCGAGUCCCGUAUGGAACG,≤ 0.5
22,GUUCCGCUGGCGUAACGGUAACCCGUCUCCCUCCUAAGGAGAAGACUGCGGGUUCGAGUCCCGUACGAAACG,≤ 0.5
23,GUUCCGUUGGCGUAAUGGUAACGCGUCUCCUUCCUAUGGAGAAGCCUGCGGGUUCGAGUGCCGUACGGAACG,≤ 0.5
24,GCUUCGUUGGCGUAAUGGUAACGCGUCUCCCUCCUACGGAGAAGACUGCGGGUUCGAGUGCCGUUCGGAACG,≤ 0.5
25,GUUCCGUUGGCGUAAUGGUAACCCGUCUCCCUCCUAAGGAGAAGACUGCGGGUUCGAGUCCCGUUCGGAGCG,≤ 0.5

row,Variant,yeast fitness
1,GUUACGUUGGCGGAAUGGUAACGCGUCUCCCGCCUAAGGAGAAGACUGCGGGUUCGAAUCCCGUACGGAACG,≤ 0.5
2,GUUUCCUUGGCGUAAUGGUAACGCGUCUCCCUCCUAAGGAGAAGACUGCGGGUUCGAGUCCCGUACGGUACG,≤ 0.5
3,GUUCCGUUGGCGUACUGGUAACGCGUCUCCCUCCUCACGAGAAGACUGCGGAUUCGAGUCCCGUACGGAACG,≤ 0.5
4,GUUCCGUUGGCGUAAUGGUAACGCGUCUCCCUCCUAAGGAGAAGACUGCGCGUUCCAGUCACGUACGGAACG,≤ 0.5
5,GUUCCGUUGGGGUCAUGCUAACGCGUCUGCCUCCUAAGGAGAAGACUGCGGGUACGAGUCCCGUACGGAACG,≤ 0.5
6,GUUCCCUUGGGGUAAUGGUAACGCGUCUCCCUCCUAUGGAGGAGACUGCGGGUUCGAGUCCCGUACGGAACG,≤ 0.5
7,GUUCCGUUGGCGUAAUGGUAACGCGUCUCCCUGCUAAGGAGAAGACUGGGGGGUUGAGUCCCGUACGGAACG,≤ 0.5
8,GUUCCGUUGGUGUAAUGGUAACGGGUCUCCCUCCUAAGGAGAAGACUGCGGGUUCGAGUCCCGUACGGAGCG,0.649
9,GUUACGUUGGCGUAAUGGUAACGCGUCUCUCUCCUAAGGAGAAGACUGCGGGUUCGGGUCCCGUUCGGAACG,≤ 0.5
10,GUUCCGUUGGCGUAAUGGUAACGGGUCUCCCUCCUAAGGAGAAGACUGCGGGUUCGUGUCCCGUACGGAGCG,≤ 0.5
11,GUUCCGCUGGCGUAGUGGUAACGCGUCUCCCUCCUAAGGAGAAGACUGCGGGUUCGAGUCCCCUACGGAACG,≤ 0.5
12,GUCCCGUUAGCGUAAUGCGAACGCGUUUCCCUCCUAAGGAGAUGACUGCGGGUUCGAGUCCCGUACUGAACG,≤ 0.5
13,GUUCCGUUGGCGUAAUGGUAAAGCGUCUACCUCCUAAGGAGAAGACUGCGGGUUCUAGUCUCGUACGGAACG,≤ 0.5
14,GUUCGGUUGGCGUAAUGGUAACGCGUCGCCUUCCUAAGGAGAAGACUGCGAGUACGAGACCCGUACGGAACG,0.522
15,GUUCCGUUGCCGUAAUGGUAACGCGUCUCCAUCCUAAGGUGAAGAUUGCGGGUUCGAGUCCCGUACGUAACG,≤ 0.5
16,GGUCCGUUGCCGUAAUGGUAACGCGUCUCCCUCCUAAGGAGUAGUCUGGGGGUUCGAGUCCCGUACGGAACG,≤ 0.5
17,GUUCCGUUGGCAUAAUGGUAACGCGUCUCCCUCCUAAGGAGAUGCCUGCGGGUUCGAGUCCCGUACCGAACG,0.542
18,GUUCCGCUGGCGUAAUGAUAAGGCGUCUCCCUCCUAAGGAGAAGACUGCGGGUUCGAGUCCUGUACGGAGCG,≤ 0.5
19,GUUCCGUUGGCGUAAUGGUAACGGGUCUCUCUCCUAAGAAGAACACUGCGGGUUCGAGUCCCGUACGGAACG,≤ 0.5
20,GUUCCGUUGGCGUAAUGGUAACGCGUCUUCUUCCUAAGGAGAAGACUGCGGGUUCGAGGCCCGUACGGAACG,≤ 0.5
21,GUUCCGUUGGCGUAAUGGUAACGCGUCUCCAUCCAUAGGAGAAGACCGCGGGUUCGAGUCCCGUAUGGAACG,≤ 0.5
22,GUUCCGUUGGCGUAAUGGUAACGCGUCUCCCUCCUAAGGAGCAGACUGCGGGUUCGAGUACCCUACGGAACG,≤ 0.5
23,GUUACGUUGGCGUAAUGGUAACGCGUCUCCCCCCUAAGGAGAAGAAUGCGGGUUCGAGUCCCGUACGGAACG,0.697
24,GUUCGGUUGGCGGAAUGGUUACGCGUCUCCCUCCUAGGGAGAAGACUGCGAGUUCGAGUCGCGUACGGAACG,≤ 0.5
25,GUUCCGUUGGAGUAAUGGUAACGCGUCUCCCUCCUAAGGAGAAGACUGCGGGUUGGAGUCCCGUACGGAACG,0.535

row,Variant,yeast fitness
1,GUUCCGUUGGCGUCAUGGUAACGCGUCUCCCUCCUAAGGAGAAGACUGCGGGUUCGGGUCCCGUACGGUACG,≤ 0.5
2,GUUCCGUUGGCGUGUUGGUAACCCGUCUCCCUCCUAAGGAGAAGACUGCCGGUACGAGUCCCCUACGGAACG,≤ 0.5
3,GGUCCGUUGGCGUAAUGGUAACGCGUCUCCUUCCUAAGGAGAAGACUGCGGGAUCGAGUGCCGUACAGACCG,≤ 0.5
4,GUUACGUUGGCGUAACAGUAACGCGUCUCCCUCCUAAGGAGAAGACUGCGGGUUAGAGUCCCGUACGGAACG,≤ 0.5
5,GUUCCAUCGGCGUCAUGGUAACGCGUCUCCCUCCUAAGGAGAAGACUGCGGGUUCGAGUCCCGUACGCAACG,≤ 0.5
6,GUUCUGUUGGCGUAAUGGUAACGCGACUCCCUCCUAAGGAGAAGACUGCGGGUUCGGGUCUCGUACGGAACG,≤ 0.5
7,GUUAAGUUGGCGUAUUGGUAACGCGUCUCCCUGCUAAAGAGAAGACUGCGGGUUCGAGGCCCGUACGGAACG,≤ 0.5
8,GUUUCGUUGGCGUAAUGGUUACGCGUCUCCCUCCUAAGGUGAAGACUGAGGGUUCCAGUCCCGUGCGGAACG,≤ 0.5
9,GUUCCAUUGGCGUAAUGGUAACGCGGCUCUCUCCUAAGGAGAAGACUGCGGAUUCGAGUCCCGUACGGAACG,≤ 0.5
10,GUUACGUUGGCGUAAUGGUAACGCGACUCCCGCCUAAGGAGAGGACUGCAGGUUCGAGUCCCGUACGGAACG,≤ 0.5
11,GUUCCGUUAGCGUAAUGGUAACGCGUCCCCCUCCUAUGGAGAAGACAGCGGGUUCGAGUCUCGUACGGAACG,0.871
12,GUUCCGUUGGCGUAAUGGUAACGCGUCUCCCUCCUAAGGAGAAGACUGCGGGUUCGCGUUCCGUGCGGAACG,≤ 0.5
13,GUUGCGUUGGGGUAAUGGUAACGCGUCUCCCUCCUAAGGAGAAGACUGCGGGUUCGAGUCACGUACGGAACG,≤ 0.5
14,GUUACGUUGGCGUAAUGGUAACGCGUCUCCCUCCUAAGGAGAAGCCUGCGGGUUCGAGUCCCGUACGGAACG,0.754
15,GUUCCGAUGGCGUAAUGGUAGCGCGUCAUCCUCCUAAGGAGAAGACUGCGGGUUCGAGUCCCGUACGGAACG,≤ 0.5
16,GUUCCGUUGGCGUAUUGGUAAGGCGUCUCCUUCCUAAGGAGAAGACUGCGGAUUCGCGUCCCGAACGAAACG,≤ 0.5
17,GUUCCGUUGGCGUAAUGGUAACGGGUCUCCCUCCUAAGGUGAAGACUGCGGGUUCGUGUCCCAUACGGAACG,≤ 0.5
18,GUUCCGUUGGUGUAAUGGUAACGCGUCUCCUUCCUAAGGAGAAGACUGCGGGUUCGCGUCCCGUACGGAACG,≤ 0.5
19,GUUCCGUUGGCGUGAUGGUAACGCGUCUCCCUCCUAAAGAGAAGACUGCGGGUUCGAGUUCCGUACCGAACG,≤ 0.5
20,GUUCCGUUGGCGCAAUGGUAACGCGUCUCCCUCCUAAGGAGAAGAAUGCGGGUCCGAGUCCCGUACGGAACG,≤ 0.5
21,GUUCCGUUGGCGUAAUGGUAACGCGUCUCCUUCCUAAGGAGAAGACUGCGGGUUCGAGUCCCGGUCGGAACG,≤ 0.5
22,GUUCGGUUGGCCUAAUGGUUACGGGUCUCCCUCCUAAGGAGAAGACUGUGGGUUAGAGUCCCGUACGGAACG,≤ 0.5
23,GUUCCGUUGGCGUAUUGGUAACGCGUCUCCCUCCUAAGGACAAGACUGCGGGUGCGAGUCCCGUACGGAACG,≤ 0.5
24,GUUGCGUUGGCGCAAUGGUAACGCGUCUCCCUCCUAAGGAGAAGACUGCGGGUUCGAGUCCCGUACGGAACG,0.886
25,GUUCCGUUGGGGUAAUGGUAACGCGUCUCCCUCCUCGGGAGAAGACUGCGGGUUCAAGUCCCGUACGGAACG,≤ 0.5
